# Measurements reported in PubChem BioAssay AID540276 (National Center for Advancing Translational Sciences (NCATS), 2011).
# In all, about 300,000 compounds went through this assay and about 5,400 (1.8%) were called active. This list was built around the results that the source calls inconclusive (neither active nor inactive); the mix of calls is not that of the screen. Calls follow the shape of the full dose curve; tested in HEK293 cells. Potencies beside an inconclusive call are fits to weak or partial responses and may not hold up.
# Experiment: qHTS for inhibitors of binding or entry into cells for Marburg Virus
# Conditions: Marburg virus pseudotyped entry inhibition, cell reporter; series mostly up to 37.8 µM
# Potency is read from the fitted curve at half-maximal effect.
row,SMILES,Potency
1,Cc1ccc(Sc2c([N+](=O)[O-])ncn2C)cc1,"inconclusive: 13 µM [inhibitor, partial curve, poor fit]"
2,N#C/C(=C/c1ccc(-c2ccccc2[N+](=O)[O-])o1)C(=O)NCCN1CCCCC1,"inconclusive: 12.6 µM [inhibitor, single point]"
3,CC(=O)c1ccc(NC(=S)N2C(C)CCCC2C)cc1 (centres undefined),inactive
4,CN1CCC(OC(c2ccccc2)c2ccc(Cl)cc2)C1 (centres undefined),active: 7.08 µM
5,CC(=O)Nc1ccc(SCC(=O)c2cc(C)n(C)c2C)cc1,inactive
6,O=C(COC(=O)c1cc(-c2ccccc2)nc2ccccc12)c1ccc(Br)cc1,inactive
7,Cc1ccc(C(=O)Nc2ccc3nc(SCC(=O)N4CCCc5ccccc54)sc3c2)cc1,inactive
8,O=C1c2ccccc2S(=O)(=O)N1C[C@H](O)COc1ccc(Cl)cc1,"inconclusive: 35.5 µM [activator, single point]"
9,CCc1ccccc1NC(=O)CC1CS(=O)(=O)CC1CC(=O)Nc1ccccc1CC (centres undefined),"inconclusive: 0.708 µM [activator, full curve, poor fit]"
10,N/C(=N\N=C\c1ccc2c(c1)OCO2)c1nonc1N,"inconclusive: 6.51 µM [inhibitor, full curve, poor fit]"
11,CC(=O)NC(NC(=S)N1CCCCCC1)C(Cl)(Cl)Cl (centres undefined),"inconclusive: 2 µM [activator, partial curve, poor fit]"
12,O=C(NCc1ccco1)/C(=C/c1cccc(C(F)(F)F)c1)c1nc2ccccc2[nH]1,"inconclusive: 17.8 µM [inhibitor, partial curve, poor fit]"
13,NC(=O)COC(=O)c1ccc(Oc2ccccc2)cc1,inactive
14,Cc1nnc2sc(SCC(=O)Nc3ccc(Cl)cc3)nn2c1=O,"inconclusive: 5.62 µM [inhibitor, single point]"
15,CCCCn1c(N)c(N(CC(C)C)C(=O)Cc2ccc(S(=O)(=O)N3CCOCC3)s2)c(=O)[nH]c1=O,inactive
16,Cc1ccc(S(=O)(=O)NC2(C(F)(F)F)C(=O)Nc3c2c(=O)[nH]c(=O)n3-c2ccccc2)cc1 (centres undefined),"inconclusive: 35.5 µM [activator, single point]"
17,NS(=O)(=O)c1ccc(N/N=C/C=C/c2ccccc2[N+](=O)[O-])cc1,inactive
18,O=c1c2ccccc2ncn1/N=C/c1ccccc1,"inconclusive: 0.562 µM [activator, full curve, poor fit]"
19,CC(C)CN1C(=O)/C(=C(/C#N)C(=O)NC2CCCCC2)c2ccccc21,"inconclusive: 10 µM [inhibitor, partial curve, poor fit]"
20,CCOc1ccc(OCc2ccc(C(=O)N3CCc4ccccc4C3)o2)cc1,inactive
21,CCOc1cc(NC(=S)Nc2cccc(OC)c2)c(OCC)cc1NC(=O)c1ccc(C)cc1,"inconclusive: 29.1 µM [inhibitor, single point]"
22,COC1=C[C@H](C(=O)NCc2ccc(Cl)cc2)C(C)C(c2ccccc2)CC1=O (some centres undefined),inactive

row,SMILES,Potency
1,Cc1cn2c(=O)cc(COc3ccccc3NC(=O)c3ccco3)nc2s1,inactive
2,Cc1cccc(OCC(=O)NCC(=O)N=Nc2c(O)[nH]c3ccc([N+](=O)[O-])cc23)c1,"inconclusive: 1.41 µM [activator, partial curve, poor fit]"
3,CCN(CC(=O)NCc1cccs1)C(=O)/C=C/c1cccc(Cl)c1Cl,"inconclusive: 0.282 µM [inhibitor, partial curve, poor fit]"
4,Cc1cc2c(cc1Cl)N(C(=O)Nc1ccc(Oc3cccnc3C)nc1)CC2,"inconclusive: 20.6 µM [inhibitor, partial curve, poor fit]"
5,CC(C)(C)SCCNC(=O)Nc1ccccc1,"inconclusive: 4.47 µM [activator, full curve, poor fit]"
6,CCOc1ccc(N(C)S(=O)(=O)c2ccc3[nH]cc(C(=O)NCCOC)c(=O)c3c2)cc1,inactive
7,Cc1c(-c2ccccc2)oc2c(C(=O)N3CCN(c4ccc([N+](=O)[O-])cc4)CC3)cccc2c1=O,inactive
8,O=C(NC1CCOCC1)C1CCC(=O)N(Cc2ccc(Cl)cc2)C1 (centres undefined),"inconclusive: 22.4 µM [activator, partial curve, poor fit]"
9,CSc1nsc(SCC(=O)Nc2ccccc2)n1,"inconclusive: 6.31 µM [activator, partial curve]"
10,COc1cccc(N2CCN(c3ncnc4c3cnn4-c3ccc(C)cc3C)CC2)c1,inactive
11,Cc1csc(NC(=O)c2cc(-c3ccccc3)nc3ccccc23)n1,"inconclusive: 22.4 µM [inhibitor, single point]"
12,O=C(COC(=O)c1ccccc1Br)Nc1ccccc1F,inactive
13,Cc1cc(C(=O)NCc2cccc(Cl)c2)c2ccccc2n1,"inconclusive: 11.2 µM [inhibitor, partial curve, poor fit]"
14,CCOc1ccccc1NC(=O)CCS(=O)(=O)c1cccs1,inactive
15,COC(=O)c1ccccc1NC(=O)c1c(C)oc2ncn(C)c(=O)c12,inactive
16,Cc1nc2nc(-c3cccs3)[nH]c2cc1Br,"inconclusive: 0.0355 µM [activator, full curve, poor fit]"
17,Cc1scc2c1N(C(=O)CN1CCN(C)CC1)c1ccccc1NC2=O,"inconclusive: 0.0562 µM [inhibitor, full curve, poor fit]"
18,O=C(O)CC/C(=N\Nc1ccc(S(=O)(=O)N2CCCC2)cc1[N+](=O)[O-])c1cccs1,"inconclusive: 3.98 µM [inhibitor, full curve, poor fit]"
19,CCOc1sc2nc(C)n(CC(=O)Nc3cccc(C)c3)c(=O)c2c1C,"inconclusive: 2.51 µM [inhibitor, single point]"
20,COc1cccc(-c2cn3nc4c(nc3n2)CCCC4)c1,"inconclusive: 7.08 µM [inhibitor, partial curve, poor fit]"
21,Cc1sc(NC(=O)c2ccco2)c(C(c2ccccc2)N2CCC(C)CC2)c1C (centres undefined),"inconclusive: 10 µM [inhibitor, partial curve, poor fit]"
22,COc1ccc(N2CCN(CCCNC(=O)CN3CCN(Cc4ccccc4C)C3=O)CC2)cc1,inactive

# By substructure: the compounds so far with a thiophene ring, fused or not (8)
row,SMILES,Potency
15,CCCCn1c(N)c(N(CC(C)C)C(=O)Cc2ccc(S(=O)(=O)N3CCOCC3)s2)c(=O)[nH]c1=O,inactive
3,CCN(CC(=O)NCc1cccs1)C(=O)/C=C/c1cccc(Cl)c1Cl,"inconclusive: 0.282 µM [inhibitor, partial curve, poor fit]"
14,CCOc1ccccc1NC(=O)CCS(=O)(=O)c1cccs1,inactive
16,Cc1nc2nc(-c3cccs3)[nH]c2cc1Br,"inconclusive: 0.0355 µM [activator, full curve, poor fit]"
17,Cc1scc2c1N(C(=O)CN1CCN(C)CC1)c1ccccc1NC2=O,"inconclusive: 0.0562 µM [inhibitor, full curve, poor fit]"
18,O=C(O)CC/C(=N\Nc1ccc(S(=O)(=O)N2CCCC2)cc1[N+](=O)[O-])c1cccs1,"inconclusive: 3.98 µM [inhibitor, full curve, poor fit]"
19,CCOc1sc2nc(C)n(CC(=O)Nc3cccc(C)c3)c(=O)c2c1C,"inconclusive: 2.51 µM [inhibitor, single point]"
21,Cc1sc(NC(=O)c2ccco2)c(C(c2ccccc2)N2CCC(C)CC2)c1C (centres undefined),"inconclusive: 10 µM [inhibitor, partial curve, poor fit]"
